Laboratory results taken from the supplement of paper PMC5949888.
Most values lie at the floor of the assay. Slopes are relative: functional sequences can read slightly below zero.

The substances below were run on Saccharomyces cerevisiae PS128 hsf1 delta, HSF1(1-493) fusion (assay: growth estimate (transactivation domain function in HSF1 fusion, heat-shock survival) (a.u. (slope of normalised read count over time)); higher = stronger growth at 37°C, i.e. more transactivation activity). Conditions: library: random library.

Row | Substance | growth estimate
1 | TRVTSILISVVPRQRVCHIG | 0.121
2 | ICETVAKRAQESSDDQVLLD | < -0.25
3 | LLLTVAHPPRSVSAFNAKTQ | < -0.25
4 | IGIWCFLIGNKHMRL | < -0.25
5 | PECECTA | < -0.25
6 | RSWGLVP | < -0.25
7 | VGKL | < -0.25
8 | GNLNPE | -0.246
9 | ASMGIESIFVNGRSFFSGQI | < -0.25
10 | PTGRGLHRVLIAVISNSGGI | < -0.25
11 | CPRLCPQRHHLAATWPVCVP | < -0.25
12 | LMLVWEVMIRTEAVYHGRPL | < -0.25
13 | PVRPRDAPARPCSIQGESCS | < -0.25
14 | GMYWVDIYKTRPESGATRER | -0.246
15 | RVAITSPKC | < -0.25
16 | LSPSNTIAG | < -0.25
17 | ALGCVMRLKGRRRWFRDALG | < -0.25
18 | VLDDDEMRLLR | < -0.25
19 | LRGDLSSRALGVSLKDGHIS | < -0.25
20 | PHWGRCDIAATMGSHSGHHE | < -0.25
21 | NPRQLNLHAGVCLRAAILSV | < -0.25
22 | LVFYSKSSLVGTEDIIDTPF | < -0.25
23 | IDEYT | < -0.25
24 | SSVGLEGG | < -0.25
25 | GDEYQKFKFGY | < -0.25
26 | GIILRRKGHDCESVRWRPCH | < -0.25
27 | ILW | < -0.25

Some of the entries so far, in markdown:

| Row | Substance | growth estimate |
| --- | --- | --- |
| 4 | IGIWCFLIGNKHMRL | < -0.25 |
| 11 | CPRLCPQRHHLAATWPVCVP | < -0.25 |
| 13 | PVRPRDAPARPCSIQGESCS | < -0.25 |
| 16 | LSPSNTIAG | < -0.25 |
| 17 | ALGCVMRLKGRRRWFRDALG | < -0.25 |

Next part.

Row | Substance | growth estimate
28 | RGIYFPSMSMIGAKWRRILG | < -0.25
29 | PTSS | < -0.25
30 | WQLVLTLDGKRSRRSFQGPK | < -0.25
31 | EGPISRGASIS | < -0.25
32 | YGPYPEAPGPGNV | < -0.25
33 | QDGSRRACYVG | < -0.25
34 | RAFCAANMATAQLGSELRHS | < -0.25
35 | LDLGRTGLSTFASDRWTVGR | < -0.25
36 | FGVKRL | < -0.25
37 | ASCIISLVRSTSGCIRWDSQ | < -0.25
38 | PLSTPSAAAVRRLNGVRVKI | < -0.25
39 | LGLLTATQCPDKQPLFNWRR | < -0.25
40 | MGSSLGSIFVNRRDPLLTRS | < -0.25
41 | RYLRTV | < -0.25
42 | YVLLVSFRRRR | < -0.25
43 | HNDS | < -0.25
44 | CTLEDRVGFRNASMSGTPSL | < -0.25
45 | GPIFSKFML | < -0.25
46 | GNCHRRLEAIILDDLHYVHG | < -0.25
47 | GRGA | < -0.25
48 | YVGSKCICRCVAIRRAELAV | < -0.25
49 | KYVIDD | < -0.25
50 | GVLE | < -0.25
51 | VLILQVKR | < -0.25
52 | ILASLPMTRYNVNLACR | < -0.25
53 | SPTQERPEEPIVSSAVDDTK | < -0.25
54 | GSVGQVLSVTQLRHLAARPA | < -0.25

Row | Substance | growth estimate
55 | RSRLVIGCSAVGSTCTTWNH | < -0.25
56 | RLAPLNERYPWNTPAYLREK | < -0.25
57 | YLRVRVAIWSTRAYCGY | < -0.25
58 | ILAPSSRHKTPCPVAGETSR | < -0.25
59 | FEICPLSVSVSATSERITPQ | < -0.25
60 | PESEILEPEAAYTNADQWPT | < -0.25
61 | TGLLQVWASSRSVRQPTRPE | < -0.25
62 | AEIRSAGFVQN | < -0.25
63 | TFCVHHTGDNGIRREGCG | < -0.25
64 | GLPLGLAALWQGQGYQGPWH | < -0.25
65 | NEG | < -0.25
66 | GRGSRHRVKLLASCHTFYAH | < -0.25
67 | ARWDTLSIGIASRRTCRLAD | < -0.25
68 | RQLIVFGRSSRQEAKIRSPR | < -0.25
69 | SGSEDFVG | < -0.25
70 | EYVCAYSFVKRSSGENPIVI | < -0.25
71 | DVTPDVGLIWALALYVLVCC | < -0.25
72 | PRPSH | < -0.25
73 | SDLRVLVLLGCFTTRSQTDG | < -0.25
74 | VLRAPCHFVWPIMEYWAASR | < -0.25
75 | RREQTGTYLASFARQPGHLG | < -0.25
76 | NGKGEAASATTT | < -0.25
77 | MLLPIGLALPRDASGE | < -0.25
78 | RYRIVHGGRTQASRKFGSGP | -0.0124
79 | ARSFPDTLFHSRASYTAKLP | < -0.25
